Experiments:
[1] = tested on: peripheral blood mononuclear cells (PBMC), IFN-alpha; assay: In Vitro PBMC Studies: Percent modification - IFN-alpha expression; assay type: cell-based, human; settings: calculated from Tables 7 and 8
Experimental: (§1) The supernatant was harvested and run by ELISA 22 hours after transfection to determine the protein expression.

[2] = tested on: peripheral blood mononuclear cells (PBMC), TNF-alpha; assay: In Vitro PBMC Studies: Percent modification - TNF-alpha expression; assay type: cell-based, human; settings: calculated from Tables 7 and 8
Experimental: as §1

[3] = tested on: Salmonella tester strains (TA97a, TA98, TA100 and TA1535) and Escherichia coli strain (WP2 uvrA pKM101); assay: Microames Reverse Mutation Screen; settings: any tester strain, with or without metabolic activation
Experimental: The microames screen is a version of the full Ames preincubation assay. It detects both frameshift and base-pair substitution mutations using four Salmonella tester strains (TA97a, TA98, TA100 and TA1535) and one Escherichia coli strain (WP2 uvrA pKM101). Strains TA97a and TA98 detect frameshift mutations, and TA100, TA1535 and WP2 uvrA pKM101 detect base-pair substitution mutations. This scaled-down Ames test uses minimal compound, is conducted with and without metabolic activation (S9 fraction), and uses multiwell plates. This teste is a microbial assay to detect the mutagenic potential of test compounds.
Positive control compounds were used at 4 different concentrations to ensure the assay system was sensitive to known mutagenic compounds. DMSO was used as the vehicle control.

Compound	G-CSF/IFN-alpha (PC ratio) [1]	G-CSF/TNF-alpha (PC ratio) [2]	Precipitates [3]
C[C@]1(CO)O[C@@H](n2ccc(N)nc2=O)[C@H](O)[C@@H]1O [Compound 25, 4′-C-methyl cytidine]	0.2	2.8	
Cn1cc([C@@H]2O[C@H](CO)[C@@H](O)[C@H]2O)c(=O)[nH]c1=O [N1-methylpseudouridine]			not observed
Cc1cn([C@@H]2O[C@H](CO)[C@@H](O)[C@H]2O)c(=O)nc1N [5-Methylcytidine, reference compound]			not observed
CN(C)c1nc2c(ncn2[C@@H]2O[C@H](CO)[C@@H](O)[C@H]2O)c(=O)[nH]1 [Compound 50, N,N-dimethyl guanosine]	0.5	6.8	
O=c1[nH]cc([C@@H]2O[C@H](CO)[C@@H](O)[C@H]2O)c(=O)[nH]1 [pseudouridine, Pseudouridine]			not observed
